These are yes or no findings as the source states them, for the method shown. Binding seen in cells or lysates may run through a third protein. A result given as binding can be weak or reduced; the word gives no strength. Where a sequence is shown, tags or fusion partners need not be part of it.

This passage reports binding results from publication PMC10484740.

For experiment [1], the target named is HA-tagged Bmc1 (wild type Bmc1-HA) (S. pombe). Kind of experiment: co-IP; native protein extracts of S. pombe expressing HA-tagged Bmc1 (wild type or L153A V155A) and myc-tagged Pof8; Protein A/G beads coated with anti-myc or anti-HA antibody, which of the two was precipitated is not stated; western blot. (A western blot detects proteins with antibodies after separation by electrophoresis.)

Experiment [2] addresses HA-tagged Bmc1 L153A V155A mutant (S. pombe). The description is as above.
The target of experiment [3] is PrA-tagged Bmc1 (S. pombe). The experiment in a line: co-IP; native protein extracts of a Bmc1 PrA pof8Δ strain re-expressing HA-tagged Pof8 mutants; Bmc1 PrA precipitated with rabbit IgG-conjugated Dynabeads; western blot with anti-HA.

B1: myc-tagged Pof8 (protein, UniProt O13795 1-402)
chain: MFVPRQLNVRKIKAFTGKENNSIADGNNNKLKDEHYKHNEASKEPSHSISGGLMLNQQDRQLIEPLNPDFLSAVDSILEIYFHRERQKEKVHLAFLIQQDDFWKGIRPNPTQNNLKYALSYVTNALFHFDNSSHMVIRNENIVLPLDIPLYDRIIYVEPVPATLSNKSLLLAGKLRKYLKEFLPYVDAIGTPEGYAFVILYKKVDQSALSKLPVPPGWVLLTRKEWTNREEKYFENQLHLVKASSSDVSNSSNSFPENRYPKLTKVEKQMTKSVSKTSQTDKDEDNLDFTKNLLTRIKNLHPLTNKSTIHSLLSYVFSRQTQNIACEPMYIDYRKDETEAIIRWKTPLHAETCINAFRTQERKQNSHDDIRAHRKKGSSRPFLIAELITGEEEKNYWRMLKK
In the case of B1, the binding result in experiment [1] and in experiment [2] was “binds” each time.

B2: HA-tagged Pof8 Lsm2-8-binding mutant (Δ2–10) (protein, UniProt O13795)
chain: MKIKAFTGKENNSIADGNNNKLKDEHYKHNEASKEPSHSISGGLMLNQQDRQLIEPLNPDFLSAVDSILEIYFHRERQKEKVHLAFLIQQDDFWKGIRPNPTQNNLKYALSYVTNALFHFDNSSHMVIRNENIVLPLDIPLYDRIIYVEPVPATLSNKSLLLAGKLRKYLKEFLPYVDAIGTPEGYAFVILYKKVDQSALSKLPVPPGWVLLTRKEWTNREEKYFENQLHLVKASSSDVSNSSNSFPENRYPKLTKVEKQMTKSVSKTSQTDKDEDNLDFTKNLLTRIKNLHPLTNKSTIHSLLSYVFSRQTQNIACEPMYIDYRKDETEAIIRWKTPLHAETCINAFRTQERKQNSHDDIRAHRKKGSSRPFLIAELITGEEEKNYWRMLKK
Turning to B2, the binding result in experiment [3] is on record as “binds”.
